According to patent publication US4997828A, “Method of weight control by low level administration of cobalt protoporphyrin or cobalt mesoporphyrin” (The Rockefeller University, priority 1989, dated 1991):

Assay: Body weight and naso-anal length of adult male rats after weekly subcutaneous injections (Example 1)
Assay type: in vivo, Sprague-Dawley rat
Details: for Naso-anal length: 10 serial doses of CoPP 1 μmol/kg b.w. s.c., n = 6
Experimental: Adult male Sprague-Dawley rats (≈250 g) were injected subcutaneously with CoPP 1 μmol/kg b.w. (12 rats) or vehicle (12 rats) on day 0. Thereafter, injections (Vertical arrows in FIG. 1) were repeated weekly until 10 doses had been given. Animals were allowed Purina rat chow and water ad libitum and animal weights were recorded thrice weekly; means are presented in FIG. 1 ( is control and treated animals). On day 71, 6 control rats and 6 CoPP-treated rats were sacrificed, blood collected for hormone determinations and hepatic mitochondrial and microsomal fractions prepared for biochemical assays. These procedures were repeated at day 124 for the remainder of the animals.
The effects of 10 serial doses of CoPP 1 μmol/kg b.w. on weight,
*n = 12; for all other parameters, n = 6 animals per treatment.
**As calculated by Student's Ttest. The only significant changes are in […]

**Q.** With C=CC1=C(C)c2cc3[n-]c(cc4nc(cc5[n-]c(cc1n2)c(C)c5CCC(=O)[O-])C(CCC(=O)[O-])=C4C)c(C)c3C=C.[Co+2].[H+].[H+] [CoPP, cobalt protoporphyrin] as the molecule, how does the “Difference in naso-anal length vs control” value (CoPP 1 μmol/kg b.w. s.c. weekly, 10 doses) read?
**A.** no significant differences

**Q.** And the Naso-anal length (Day 71, control 26.6 ± 0.33)?
**A.** 25.8 ± 0.11 cm

**Q.** What about the Naso-anal length (Day 124, control 27 ± 0.22) of the same molecule?
**A.** 27 ± 0.11 cm
